Reference: ChEMBL document CHEMBL3616364, “Going Out on a Limb: Delineating The Effects of β-Branching, N-Methylation, and Side Chain Size on the Passive Permeability, Solubility, and Flexibility of Sanguinamide A Analogues” (J Med Chem, 2015)
Values after ≈ are worked out from the molar mass of the structure shown.

Tests used:
[1] = Kinetic solubility of the compound in PBS at pH 7.4; details: buffer
[2] = physchem; details: buffer

Compound: CC[C@H](C)[C@@H]1NC(=O)[C@@H]2CCCN2C(=O)[C@H](Cc2ccccc2)NC(=O)[C@H](C(C)(C)C)NC(=O)c2csc(n2)[C@H]([C@@H](C)CC)NC(=O)[C@@H]2CCCN2C1=O
- solubility kinetic [1]: 36 µM (≈ 27.5 µg/mL)

Compound: CC[C@H](C)[C@@H]1NC(=O)[C@@H]2CCCN2C(=O)[C@H](Cc2ccccc2)N(C)C(=O)[C@H](C(C)(C)C)NC(=O)c2csc(n2)[C@H]([C@@H](C)CC)NC(=O)[C@@H]2CCCN2C1=O
- solubility kinetic [1]: 36 µM (≈ 28 µg/mL)
- solubility thermodynamic at 48 h [2]: 8 µM (≈ 6.22 µg/mL)
